No constants are given. Whether binding was seen depends on the method and setting. Some entries that bind do so weakly or less than the wild type.

The target in this experiment is T1, human chemokine CXCL8 (human, UniProt P10145 28-99, limits assumed).
T1 construct: also called IL8; IL-8
T1 sequence (looked up): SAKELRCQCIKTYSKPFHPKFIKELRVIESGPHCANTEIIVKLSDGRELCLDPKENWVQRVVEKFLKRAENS
The experiment can be described thus: SPR (Biacore 3000), antibody captured, cytokine as analyte, 25 C. (SPR reads the build-up and loss of mass on a sensor chip optically.)

B1: monoclonal rat IgG antibody produced by the hybridoma 35B11-8 (CNCM I-4618) (antibody, V domains shown)
VH: EVQLVESGGGLVQPGRSLKLSCVASGFTFNNYWMTWIRQAPGKGLEWVASISKTGSNPYYPDSVKGRFTISRDNAKNTLYLQMNSLRSEDTATYYCARDGTTPLDYWGQGVMVTVSS
VL: DIQMTQSPPSLSASLGDKVTITCQASQNINKYIAWYQQKPGKAPGLLIHYTSTLVSGIPSRFSGSGSGRVYSFSISNVESEDIASYYCLQYDNSPFPFGAGTKLELK
notes: also called Mc35B11-8
For the molecule B1, the binding entry is “binds”.

B2: monoclonal rat IgG antibody produced by the hybridoma 12A10-13 (CNCM I-4617) (antibody, V domains shown)
VH: QVQLQQSGAELAKPGSSVKISCKASGYTFTSYYISWIKQTTGQGLEYIGYINTGSGGTNYNEKFKGKATLTVDKSSSTAFMQLSSLTPDDSAVYYCASPSGGFDYWGQGVMVTVSS
VL: EIVLTQSPTTMAASPGEKVTITCRASSSVSYMHWYQQKPGASPKPWIYDTSKLASGVPNRFSGSGSGTSYSLTISSMETEDTATYYCQQWSSNSLTFGSGTKLEIK
notes: also called Mc12A10-13
B2: the binding entry is recorded as “binds”.

The values are drawn from patent publication US20160108117A1 (UNIVERSITE DE NICE SOPHIA ANTIPOLIS, published 2016).
